Reference: the supplement of paper PMC10849652
The other results are listed elsewhere or left out.

Protein sequences, listed by entry. Tags and fused reporters are not part of them. Lines headed by an entry give the natural chain unless they say otherwise; changes in a name come on top.
UniProt P61769, whole entry, looked up: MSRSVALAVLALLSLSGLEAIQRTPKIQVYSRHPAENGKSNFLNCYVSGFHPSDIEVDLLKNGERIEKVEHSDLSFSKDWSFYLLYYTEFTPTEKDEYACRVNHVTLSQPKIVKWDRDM
UniProt Q9Y294, whole entry, looked up: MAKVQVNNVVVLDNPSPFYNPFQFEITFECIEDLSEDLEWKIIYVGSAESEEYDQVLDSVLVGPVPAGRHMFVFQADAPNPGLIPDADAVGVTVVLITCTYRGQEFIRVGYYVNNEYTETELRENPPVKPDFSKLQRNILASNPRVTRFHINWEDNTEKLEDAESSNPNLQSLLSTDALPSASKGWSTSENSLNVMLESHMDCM
UniProt P16615: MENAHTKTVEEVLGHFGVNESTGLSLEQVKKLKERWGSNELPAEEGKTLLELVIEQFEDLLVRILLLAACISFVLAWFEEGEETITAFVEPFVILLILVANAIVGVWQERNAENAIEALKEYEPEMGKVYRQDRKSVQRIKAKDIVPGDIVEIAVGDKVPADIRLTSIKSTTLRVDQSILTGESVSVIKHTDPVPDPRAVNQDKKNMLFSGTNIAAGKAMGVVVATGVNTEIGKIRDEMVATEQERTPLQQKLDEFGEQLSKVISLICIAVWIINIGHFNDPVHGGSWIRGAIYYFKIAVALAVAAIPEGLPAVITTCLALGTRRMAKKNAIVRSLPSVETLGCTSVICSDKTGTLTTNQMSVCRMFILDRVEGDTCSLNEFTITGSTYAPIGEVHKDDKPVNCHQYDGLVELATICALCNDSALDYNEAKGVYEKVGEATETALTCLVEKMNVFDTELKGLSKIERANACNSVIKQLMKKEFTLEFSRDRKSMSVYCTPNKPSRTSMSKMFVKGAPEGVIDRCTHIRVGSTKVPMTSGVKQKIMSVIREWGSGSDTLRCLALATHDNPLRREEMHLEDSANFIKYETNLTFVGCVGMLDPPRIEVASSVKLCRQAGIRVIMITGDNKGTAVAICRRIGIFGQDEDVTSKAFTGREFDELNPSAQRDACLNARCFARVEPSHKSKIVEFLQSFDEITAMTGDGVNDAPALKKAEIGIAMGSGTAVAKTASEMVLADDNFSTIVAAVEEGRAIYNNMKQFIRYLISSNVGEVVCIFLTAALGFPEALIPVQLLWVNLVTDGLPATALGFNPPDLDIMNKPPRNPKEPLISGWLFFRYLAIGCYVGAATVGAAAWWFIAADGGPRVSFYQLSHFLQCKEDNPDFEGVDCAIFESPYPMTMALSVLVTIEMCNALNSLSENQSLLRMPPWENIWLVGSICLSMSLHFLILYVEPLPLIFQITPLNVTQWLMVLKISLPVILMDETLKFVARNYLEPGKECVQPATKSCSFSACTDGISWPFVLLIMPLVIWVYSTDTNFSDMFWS
UniProt Q9NY97: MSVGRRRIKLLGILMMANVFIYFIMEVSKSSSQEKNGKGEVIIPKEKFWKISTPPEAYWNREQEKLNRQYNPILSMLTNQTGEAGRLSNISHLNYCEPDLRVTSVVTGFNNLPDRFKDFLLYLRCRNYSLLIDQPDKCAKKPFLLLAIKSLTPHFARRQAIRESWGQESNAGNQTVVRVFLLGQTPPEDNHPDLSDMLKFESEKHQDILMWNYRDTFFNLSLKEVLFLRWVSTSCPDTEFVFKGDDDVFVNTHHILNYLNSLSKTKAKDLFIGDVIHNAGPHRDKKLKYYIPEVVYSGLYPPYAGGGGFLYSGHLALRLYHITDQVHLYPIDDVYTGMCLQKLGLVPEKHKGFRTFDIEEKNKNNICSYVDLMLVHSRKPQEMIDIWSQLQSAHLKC
UniProt Q9H1Y0: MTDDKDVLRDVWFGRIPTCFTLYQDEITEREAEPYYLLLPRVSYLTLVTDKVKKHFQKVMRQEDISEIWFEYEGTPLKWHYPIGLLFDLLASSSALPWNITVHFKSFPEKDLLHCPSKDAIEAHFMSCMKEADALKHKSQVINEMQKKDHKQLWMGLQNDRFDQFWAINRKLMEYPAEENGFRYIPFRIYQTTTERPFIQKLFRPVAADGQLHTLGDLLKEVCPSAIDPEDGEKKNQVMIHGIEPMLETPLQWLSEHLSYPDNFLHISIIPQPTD
UniProt O75964: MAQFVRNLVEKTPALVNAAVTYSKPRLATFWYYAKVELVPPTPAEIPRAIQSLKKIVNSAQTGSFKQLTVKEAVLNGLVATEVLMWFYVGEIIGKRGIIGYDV
UniProt O75348, whole entry, looked up: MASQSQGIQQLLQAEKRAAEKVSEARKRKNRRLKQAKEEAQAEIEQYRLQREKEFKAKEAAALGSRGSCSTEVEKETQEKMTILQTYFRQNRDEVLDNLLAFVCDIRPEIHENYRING
UniProt Q9Y6H3: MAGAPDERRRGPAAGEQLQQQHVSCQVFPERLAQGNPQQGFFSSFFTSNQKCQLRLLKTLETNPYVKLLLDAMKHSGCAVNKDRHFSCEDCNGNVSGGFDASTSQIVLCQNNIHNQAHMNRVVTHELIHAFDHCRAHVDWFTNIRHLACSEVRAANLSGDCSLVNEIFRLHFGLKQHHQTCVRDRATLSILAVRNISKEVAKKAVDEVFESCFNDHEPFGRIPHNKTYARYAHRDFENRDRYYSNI
UniProt P20020: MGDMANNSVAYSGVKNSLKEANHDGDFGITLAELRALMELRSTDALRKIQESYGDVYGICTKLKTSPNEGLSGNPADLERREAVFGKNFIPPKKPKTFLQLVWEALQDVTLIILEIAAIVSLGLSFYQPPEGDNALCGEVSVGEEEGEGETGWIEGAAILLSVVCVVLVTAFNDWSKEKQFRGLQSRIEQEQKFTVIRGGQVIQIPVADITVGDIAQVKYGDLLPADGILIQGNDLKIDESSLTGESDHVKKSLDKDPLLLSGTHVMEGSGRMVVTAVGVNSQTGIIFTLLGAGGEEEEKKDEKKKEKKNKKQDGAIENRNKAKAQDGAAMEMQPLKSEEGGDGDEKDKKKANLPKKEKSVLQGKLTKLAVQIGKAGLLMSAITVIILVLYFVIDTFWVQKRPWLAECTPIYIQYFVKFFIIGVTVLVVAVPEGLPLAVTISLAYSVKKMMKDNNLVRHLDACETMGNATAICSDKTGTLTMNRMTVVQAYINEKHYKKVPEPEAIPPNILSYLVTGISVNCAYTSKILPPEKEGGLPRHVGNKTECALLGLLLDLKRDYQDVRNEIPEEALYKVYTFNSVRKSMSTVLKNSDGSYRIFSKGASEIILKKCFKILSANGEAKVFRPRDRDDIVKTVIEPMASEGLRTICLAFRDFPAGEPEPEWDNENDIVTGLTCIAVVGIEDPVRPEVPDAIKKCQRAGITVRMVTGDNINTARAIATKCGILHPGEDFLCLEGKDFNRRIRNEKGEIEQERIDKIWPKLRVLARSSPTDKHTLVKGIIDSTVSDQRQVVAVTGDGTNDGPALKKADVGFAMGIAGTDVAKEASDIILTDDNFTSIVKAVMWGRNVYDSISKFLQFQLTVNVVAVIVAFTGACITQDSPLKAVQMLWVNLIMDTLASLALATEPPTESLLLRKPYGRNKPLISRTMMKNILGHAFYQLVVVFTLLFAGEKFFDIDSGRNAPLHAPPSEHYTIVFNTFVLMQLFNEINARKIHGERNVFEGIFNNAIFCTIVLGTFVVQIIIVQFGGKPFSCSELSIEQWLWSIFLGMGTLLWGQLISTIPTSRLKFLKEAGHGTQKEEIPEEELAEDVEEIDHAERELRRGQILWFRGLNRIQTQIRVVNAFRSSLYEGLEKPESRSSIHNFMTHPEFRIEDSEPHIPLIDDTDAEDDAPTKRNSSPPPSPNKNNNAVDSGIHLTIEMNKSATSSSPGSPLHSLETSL
UniProt O94817, whole entry, looked up: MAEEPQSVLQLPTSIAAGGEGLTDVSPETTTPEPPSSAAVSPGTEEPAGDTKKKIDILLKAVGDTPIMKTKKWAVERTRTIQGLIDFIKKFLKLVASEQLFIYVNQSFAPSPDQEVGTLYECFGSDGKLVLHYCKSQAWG
UniProt Q8N9N2: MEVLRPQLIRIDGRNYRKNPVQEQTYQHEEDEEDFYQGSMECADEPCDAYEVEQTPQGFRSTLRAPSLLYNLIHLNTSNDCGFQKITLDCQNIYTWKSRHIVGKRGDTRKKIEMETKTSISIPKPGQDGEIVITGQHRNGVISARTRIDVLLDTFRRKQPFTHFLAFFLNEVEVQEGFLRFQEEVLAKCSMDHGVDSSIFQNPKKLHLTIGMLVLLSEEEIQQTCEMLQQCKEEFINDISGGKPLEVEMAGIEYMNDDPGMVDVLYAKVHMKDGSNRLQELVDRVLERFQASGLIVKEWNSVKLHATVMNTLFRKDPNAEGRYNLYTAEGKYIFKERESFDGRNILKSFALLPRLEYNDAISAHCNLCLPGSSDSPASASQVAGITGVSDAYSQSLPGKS
UniProt Q9UBL3, whole entry, looked up: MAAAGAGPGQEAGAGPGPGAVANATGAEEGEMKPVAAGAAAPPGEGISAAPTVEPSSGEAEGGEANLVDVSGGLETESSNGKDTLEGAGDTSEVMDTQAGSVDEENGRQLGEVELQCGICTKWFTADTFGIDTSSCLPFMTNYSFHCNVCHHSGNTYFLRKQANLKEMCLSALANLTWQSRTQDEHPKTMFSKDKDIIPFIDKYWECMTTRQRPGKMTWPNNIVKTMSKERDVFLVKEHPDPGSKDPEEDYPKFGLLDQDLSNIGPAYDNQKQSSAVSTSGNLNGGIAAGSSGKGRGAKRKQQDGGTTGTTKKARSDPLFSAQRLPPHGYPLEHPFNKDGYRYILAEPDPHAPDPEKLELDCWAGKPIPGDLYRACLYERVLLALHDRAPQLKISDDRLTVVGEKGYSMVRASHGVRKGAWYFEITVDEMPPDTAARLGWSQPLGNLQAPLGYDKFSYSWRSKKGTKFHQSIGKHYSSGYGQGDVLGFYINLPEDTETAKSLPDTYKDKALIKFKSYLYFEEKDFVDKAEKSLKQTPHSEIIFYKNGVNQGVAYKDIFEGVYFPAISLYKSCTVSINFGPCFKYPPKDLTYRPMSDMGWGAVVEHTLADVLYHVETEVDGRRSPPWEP
UniProt P61421, whole entry, looked up: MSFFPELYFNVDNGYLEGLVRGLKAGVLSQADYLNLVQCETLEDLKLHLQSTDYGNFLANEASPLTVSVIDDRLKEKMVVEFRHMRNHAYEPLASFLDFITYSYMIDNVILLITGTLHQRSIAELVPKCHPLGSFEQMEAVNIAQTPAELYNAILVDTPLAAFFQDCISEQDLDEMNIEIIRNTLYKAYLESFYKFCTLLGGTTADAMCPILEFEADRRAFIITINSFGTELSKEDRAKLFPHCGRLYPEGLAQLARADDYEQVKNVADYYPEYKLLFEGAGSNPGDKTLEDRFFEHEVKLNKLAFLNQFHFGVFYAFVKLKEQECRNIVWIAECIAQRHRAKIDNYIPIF
UniProt O43861: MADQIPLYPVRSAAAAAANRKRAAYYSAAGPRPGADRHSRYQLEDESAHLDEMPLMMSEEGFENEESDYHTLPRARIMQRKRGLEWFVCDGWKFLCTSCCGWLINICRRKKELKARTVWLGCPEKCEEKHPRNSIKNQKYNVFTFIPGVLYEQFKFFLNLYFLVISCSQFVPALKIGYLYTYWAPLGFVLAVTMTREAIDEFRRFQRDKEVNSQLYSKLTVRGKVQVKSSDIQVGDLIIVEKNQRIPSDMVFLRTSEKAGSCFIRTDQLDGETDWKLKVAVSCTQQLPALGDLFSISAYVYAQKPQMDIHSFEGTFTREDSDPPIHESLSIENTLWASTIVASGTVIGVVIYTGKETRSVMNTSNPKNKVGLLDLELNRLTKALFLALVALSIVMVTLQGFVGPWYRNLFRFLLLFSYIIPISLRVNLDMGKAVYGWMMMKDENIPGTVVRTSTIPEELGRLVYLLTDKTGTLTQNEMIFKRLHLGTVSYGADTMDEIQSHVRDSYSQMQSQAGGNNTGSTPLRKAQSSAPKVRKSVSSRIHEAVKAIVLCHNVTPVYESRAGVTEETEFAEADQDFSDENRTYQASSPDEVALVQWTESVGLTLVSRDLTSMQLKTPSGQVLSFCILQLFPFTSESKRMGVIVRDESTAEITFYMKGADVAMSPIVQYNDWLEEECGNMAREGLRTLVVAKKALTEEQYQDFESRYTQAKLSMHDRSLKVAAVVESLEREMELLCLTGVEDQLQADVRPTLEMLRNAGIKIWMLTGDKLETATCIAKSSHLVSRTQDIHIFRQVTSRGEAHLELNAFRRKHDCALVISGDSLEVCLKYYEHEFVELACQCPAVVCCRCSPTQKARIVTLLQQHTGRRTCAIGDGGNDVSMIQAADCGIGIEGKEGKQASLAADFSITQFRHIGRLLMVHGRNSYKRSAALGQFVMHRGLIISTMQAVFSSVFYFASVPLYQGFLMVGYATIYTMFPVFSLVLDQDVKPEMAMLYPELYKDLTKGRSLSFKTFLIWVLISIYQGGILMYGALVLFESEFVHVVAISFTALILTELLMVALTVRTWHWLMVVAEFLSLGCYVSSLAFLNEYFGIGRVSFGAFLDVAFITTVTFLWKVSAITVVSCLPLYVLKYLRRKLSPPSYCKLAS

Tests used:
Assay in all cases: log2 fold change, soluble protein after heating vs DMSO (PISA); higher = thermal stabilisation; K562 lysate, 10 uM; active = over 0.2 and 3.5 SD of the protein, either way, in both replicates (recomputed)
erlotinib = compound: C#Cc1cccc(Nc2ncnc3cc(OCCOC)c(OCCOC)cc23)c1 [erlotinib]
How it was run: (§1)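 K562 pellets were dounce-homogenised in PBS pH 7.4 containing 1 mM MgCl2, and the crude extract, at 1 mg/mL protein, was exposed to 10 μM compound for 30 min. Aliquots were heated for 3 min across 48°C-58°C, pooled, brought to 0.5% NP-40 at 4°C and spun at 21,000xg for 90 min, with the supernatant taken as soluble protein. TMTpro 16plex LC-MS/MS with equalised channel sums quantified that protein. Values are log-two fold changes in thermal stability relative to solvent controls, taken from duplicates.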

[1] = compound: C/C(=N\NC(=O)C1=CC(=CC=C1)S(=O)(=O)N2CCOCC2)/C3=C(C=CC(=C3)Cl)O
How it was run: as §1

[2] = compound: C1=CC(=CC=C1C2=NC3=C(N2)C=C(C=C3)C(=O)N)OC4=CC=C(C=C4)Cl
How it was run: as §1

[3] = compound: C1=CC2=C(C=CC(=C2)/C=C\3/C(=O)NC(=NCC4=CC=CS4)S3)N=C1
How it was run: as §1

[4] = compound: C1=CC2=NC=CN=C2C=C1/C=C/3\C(=O)NC(=O)S3
How it was run: as §1

[5] = compound: C1=CC=C(C=C1)C2=NC(=C(N2)C3=CC=NC=C3)C4=CC(=C(C=C4)Cl)O
How it was run: as §1

[6] = compound: C1=CC=C2C(=C1)C3=NNC4=CC=CC(=C43)C2=O
How it was run: as §1

[7] = compound: C1CCN(C1)C(=O)NC2=CC=CC(=C2)NC3=NC=C(C(=N3)NCCC4=CN=CN4)Br
How it was run: as §1

[8] = compound: C1CN(CCC1(CC2=CC=C(C=C2)Cl)N)C3=NC=NC4=C3C=CN4
How it was run: as §1

IRAK-1-4 Inhibitor I = compound: C1COCCN1CCN2C3=CC=CC=C3N=C2NC(=O)C4=CC(=CC=C4)[N+](=O)[O-] [IRAK-1-4 Inhibitor I]
How it was run: as §1

ibrutinib = compound: C=CC(=O)N1CCC[C@@H](n2nc(-c3ccc(Oc4ccccc4)cc3)c3c(N)ncnc32)C1 [ibrutinib]
How it was run: as §1

[9] = compound: CC(=O)c1cnc2ccc(-c3cc(Cl)c(O)c(Cl)c3)nc2c1N[C@H]1CC[C@H](CN(C)C)CC1
How it was run: as §1

ralimetinib = compound: CC(C)(C)Cn1c(N)nc2ccc(-c3[nH]c(C(C)(C)C)nc3-c3ccc(F)cc3)nc21 [ralimetinib]
How it was run: as §1

[10] = compound: CC(C)(O)CC(=O)NCCn1ccc2ncnc(Nc3ccc(Oc4cccc(C(F)(F)F)c4)c(Cl)c3)c21
How it was run: as §1

[11] = compound: CC(C)C1=C2N=C(C=C(N2N=C1)NCC3=CC=CC=C3)NCCCCCCN
How it was run: as §1

[12] = compound: CC1=C(C(CC(=O)N1)C2=CC=C(C=C2)C(F)(F)F)C(=O)NC3=C(C=C4C(=C3)C=NN4)F
How it was run: as §1

[13] = compound: CC1=C(C2=C(C=C1)C(=O)C3=CC=CC=C3N2CCCN)C
How it was run: as §1

[14] = compound: CC1=C(C=C(C=C1)NC(=O)C2=CC(=CC=C2)C(C)(C)C#N)NC3=CC4=C(C=C3)N=CN(C4=O)C
How it was run: as §1

[15] = compound: CC1=C(C=C(C=C1)NC(=O)C2=CC(=CC=C2)N(C)C)NC(=O)C3=CC=C(C=C3)O
How it was run: as §1

[16] = compound: CC1=CC=C(C=C1)SC2=C3C=C(SC3=CN=C2)C(=O)N
How it was run: as §1

Measured: log2 fold change

B2M (UniProt P61769)
inactive: erlotinib -0.017 | [1] 0.035 | [2] -0.044 | [3] 0.011 | [4] 0.074 | [5] 0.041 | [6] -0.002 | [7] 0.029 | [8] 0.068 | IRAK-1-4 Inhibitor I 0.018 | ibrutinib -0.012 | [9] 0.026 | ralimetinib -0.035 | [10] -0.019 | [11] -0.006 | [12] 0.277 | [13] -0.134 | [14] 0.061 | [15] -0.022 | [16] 0.009

ASF1A (UniProt Q9Y294)
inactive: erlotinib -0.014 | [1] -0.105 | [2] 0.006 | [3] 0.044 | [4] 0.009 | [5] 0.005 | [6] 0.002 | [7] -0.021 | [8] -0.013 | IRAK-1-4 Inhibitor I 0.006 | ibrutinib -0.059 | [9] 0.009 | ralimetinib 0.005 | [10] -0.025 | [11] -0.031 | [12] -0.003 | [13] 0.005 | [14] 0.029 | [15] -0.015 | [16] -0.015

ATN1 (UniProt P54259)
inactive: erlotinib -0.059 | [1] 0.036 | [2] 0.054 | [3] -0.003 | [4] 0.013 | [5] 0.007 | [6] -0.007 | [7] 0.009 | [8] 0.056 | IRAK-1-4 Inhibitor I -0.01 | ibrutinib 0.037 | [9] -0.032 | ralimetinib -0.008 | [10] -0.078 | [11] 0.019 | [12] -0.017 | [13] -0.022 | [14] -0.15 | [15] -0.008 | [16] -0.038

ATP2A2 (UniProt P16615)
inactive: erlotinib -0.021 | [1] 0.027 | [2] -0.036 | [3] 0.001 | [4] 0.01 | [5] -0.024 | [6] -0.062 | [7] -0.043 | [8] 0.051 | IRAK-1-4 Inhibitor I 0.026 | ibrutinib -0.002 | [9] -0.002 | ralimetinib 0.009 | [10] -0.021 | [11] -0.008 | [12] 0.006 | [13] 0.01 | [14] 0.026 | [15] 0.007 | [16] -0.003

B3GNT2 (UniProt Q9NY97)
inactive: erlotinib -0.169 | [1] -0.029 | [2] -0.028 | [3] 0.024 | [4] -0.042 | [5] 0.003 | [6] -0.048 | [7] 0.026 | [8] -0.023 | IRAK-1-4 Inhibitor I -0.049 | ibrutinib 0.021 | [9] 0.075 | ralimetinib -0.045 | [10] -0.07 | [11] -0.041 | [12] -0.017 | [13] -0.018 | [14] 0.088 | [15] -0.079 | [16] 0.021

ATG5 (UniProt Q9H1Y0)
inactive: erlotinib -0.028 | [1] -0.032 | [2] 0.004 | [3] 0.011 | [4] -0.006 | [5] 0.008 | [6] 0.018 | [7] -0.002 | [8] 0.004 | IRAK-1-4 Inhibitor I -0.005 | ibrutinib 0.049 | [9] 0 | ralimetinib 0.022 | [10] 0.008 | [11] -0.009 | [12] 0.028 | [13] 0.007 | [14] 0.008 | [15] -0.008 | [16] -0.012

ATP5MG (UniProt O75964)
inactive: erlotinib 0 | [1] 0.028 | [2] 0.007 | [3] 0.023 | [4] 0.015 | [5] 0.013 | [6] -0.004 | [7] 0.014 | [8] 0.051 | IRAK-1-4 Inhibitor I 0.049 | ibrutinib 0.001 | [9] -0.003 | ralimetinib -0.007 | [10] -0.024 | [11] 0.008 | [12] -0.028 | [13] -0.035 | [14] 0.038 | [15] -0.019 | [16] 0.004

ATP6V1G1 (UniProt O75348)
inactive: erlotinib -0.018 | [1] 0.01 | [2] 0.046 | [3] -0.025 | [4] -0.018 | [5] -0.011 | [6] 0.026 | [7] 0.022 | [8] -0.017 | IRAK-1-4 Inhibitor I -0.014 | ibrutinib -0.002 | [9] 0.013 | ralimetinib 0.008 | [10] -0.041 | [11] 0.012 | [12] -0.015 | [13] -0.018 | [14] 0.001 | [15] -0.063 | [16] -0.027

ATP23 (UniProt Q9Y6H3)
inactive: erlotinib -0.068 | [1] 0.125 | [2] -0.065 | [3] -0.138 | [4] -0.033 | [5] 0.054 | [6] -0.142 | [7] -0.029 | [8] -0.035 | IRAK-1-4 Inhibitor I -0.045 | ibrutinib -0.041 | [9] 0.009 | ralimetinib -0.004 | [10] -0.015 | [11] 0.076 | [12] 0.019 | [13] 0.017 | [14] -0.106 | [15] -0.022 | [16] -0.02

ATP2B1 isoform 1 (UniProt P20020)
inactive: erlotinib -0.026 | [1] -0.015 | [2] -0.009 | [3] -0.031 | [4] -0.009 | [5] -0.019 | [6] 0.026 | [7] -0.04 | [8] 0.024 | IRAK-1-4 Inhibitor I 0.016 | ibrutinib -0.007 | [9] 0.021 | ralimetinib 0.017 | [10] -0.032 | [11] 0.003 | [12] 0 | [13] 0.01 | [14] -0.018 | [15] 0.01 | [16] 0.004

ATG12 (UniProt O94817)
inactive: erlotinib 0.01 | [1] 0.086 | [2] -0.049 | [3] 0.019 | [4] 0.064 | [5] 0 | [6] 0.02 | [7] -0.004 | [8] -0.024 | IRAK-1-4 Inhibitor I 0.035 | ibrutinib 0.003 | [9] 0.041 | ralimetinib -0.026 | [10] -0.026 | [11] 0.008 | [12] -0.024 | [13] -0.093 | [14] 0.033 | [15] -0.035 | [16] 0.039

Two consecutive entries from above:
ATP5MG (UniProt O75964)
inactive: erlotinib 0 | [1] 0.028 | [2] 0.007 | [3] 0.023 | [4] 0.015 | [5] 0.013 | [6] -0.004 | [7] 0.014 | [8] 0.051 | IRAK-1-4 Inhibitor I 0.049 | ibrutinib 0.001 | [9] -0.003 | ralimetinib -0.007 | [10] -0.024 | [11] 0.008 | [12] -0.028 | [13] -0.035 | [14] 0.038 | [15] -0.019 | [16] 0.004

ATP6V1G1 (UniProt O75348)
inactive: erlotinib -0.018 | [1] 0.01 | [2] 0.046 | [3] -0.025 | [4] -0.018 | [5] -0.011 | [6] 0.026 | [7] 0.022 | [8] -0.017 | IRAK-1-4 Inhibitor I -0.014 | ibrutinib -0.002 | [9] 0.013 | ralimetinib 0.008 | [10] -0.041 | [11] 0.012 | [12] -0.015 | [13] -0.018 | [14] 0.001 | [15] -0.063 | [16] -0.027

Next results follow.

ATP1A3 isoform 3 (UniProt P13637)
inactive: erlotinib 0.006 | [1] -0.022 | [2] 0.027 | [3] 0.004 | [4] -0.012 | [5] -0.005 | [6] -0.025 | [7] -0.052 | [8] 0.014 | IRAK-1-4 Inhibitor I 0.049 | ibrutinib -0.014 | [9] -0.012 | ralimetinib -0.009 | [10] -0.039 | [11] -0.03 | [12] -0.056 | [13] -0.023 | [14] 0.041 | [15] -0.001 | [16] -0.026

ASCC1 isoform 2 (UniProt Q8N9N2)
inactive: erlotinib 0.005 | [1] -0.042 | [2] -0.007 | [3] 0.025 | [4] -0.011 | [5] -0.012 | [6] -0.012 | [7] -0.061 | [8] 0.009 | IRAK-1-4 Inhibitor I -0.011 | ibrutinib -0.026 | [9] -0.014 | ralimetinib -0.012 | [10] 0.023 | [11] -0.03 | [12] -0.04 | [13] -0.015 | [14] 0.05 | [15] 0.009 | [16] -0.002

ASH2L (UniProt Q9UBL3)
inactive: erlotinib -0.006 | [1] -0.004 | [2] 0.002 | [3] -0.015 | [4] 0.001 | [5] -0.007 | [6] 0 | [7] 0.004 | [8] -0.015 | IRAK-1-4 Inhibitor I -0.021 | ibrutinib -0.032 | [9] -0.004 | ralimetinib 0.02 | [10] 0.034 | [11] 0.008 | [12] -0.007 | [13] -0.012 | [14] -0.002 | [15] 0.012 | [16] 0.006

ATP6V0D1 (UniProt P61421)
inactive: erlotinib 0.007 | [1] 0.014 | [2] -0.057 | [3] 0.014 | [4] -0.03 | [5] 0.009 | [6] 0.059 | [7] -0.052 | [8] 0.011 | IRAK-1-4 Inhibitor I -0.011 | ibrutinib 0.037 | [9] -0.048 | ralimetinib -0.008 | [10] -0.01 | [11] -0.017 | [12] -0.056 | [13] 0.034 | [14] 0.016 | [15] -0.023 | [16] 0.045

ATP9B (UniProt O43861)
inactive: erlotinib 0.008 | [1] -0.057 | [2] 0.034 | [3] 0.175 | [4] -0.07 | [5] 0.031 | [6] 0.081 | [7] 0.027 | [8] -0.103 | IRAK-1-4 Inhibitor I -0.037 | ibrutinib -0.156 | [9] 0.08 | ralimetinib -0.044 | [10] -0.053 | [11] -0.021 | [12] 0.225 | [13] 0.049 | [14] 0 | [15] 0.079 | [16] -0.054
